Values quoted from earlier work as cited in US20240238214A1, “NANOCONSTRUCTS AND NANOPARTICLE-MEDIATED DELIVERY OF IMMUNOGENIC CELL DEATH INDUCERS FOR ENHANCING CANCER IMMUNOTHERAPY” (Purdue Research Foundation, priority 2021, published 2024).

Conditions: cited from earlier work

CC(=O)O[C@H]1C(=O)[C@@]2(C)[C@H]([C@H](OC(=O)c3ccccc3)[C@]3(O)C[C@H](OC(=O)[C@H](O)[C@@H](NC(=O)c4ccccc4)c4ccccc4)C(C)=C1C3(C)C)[C@]1(OC(C)=O)CO[C@@H]1C[C@@H]2O [PTX, paclitaxel]
water solubility: 8.5 to 17 µg/mL
